Experimental data from PubChem BioAssay AID2537 (National Center for Advancing Translational Sciences (NCATS), 2010).
The shares of active, inactive and inconclusive entries below differ from those in the screen. Potencies beside an inconclusive call are fits to weak or partial responses and may not hold up. Active and inactive are the calls of the source. Calls come from the whole dose curve; as a rule, active = well fitted inhibition curve with a large enough effect; inconclusive = small, poorly fitted or top-dose-only effect; inactive = no such curve, though single readings can be large or run the other way.

By UniProt entry, the sequences of proteins in these tests, tags left out. Where a name states a change or a piece, a line headed by the entry shows the natural chain unless it says otherwise.
UniProt O15296: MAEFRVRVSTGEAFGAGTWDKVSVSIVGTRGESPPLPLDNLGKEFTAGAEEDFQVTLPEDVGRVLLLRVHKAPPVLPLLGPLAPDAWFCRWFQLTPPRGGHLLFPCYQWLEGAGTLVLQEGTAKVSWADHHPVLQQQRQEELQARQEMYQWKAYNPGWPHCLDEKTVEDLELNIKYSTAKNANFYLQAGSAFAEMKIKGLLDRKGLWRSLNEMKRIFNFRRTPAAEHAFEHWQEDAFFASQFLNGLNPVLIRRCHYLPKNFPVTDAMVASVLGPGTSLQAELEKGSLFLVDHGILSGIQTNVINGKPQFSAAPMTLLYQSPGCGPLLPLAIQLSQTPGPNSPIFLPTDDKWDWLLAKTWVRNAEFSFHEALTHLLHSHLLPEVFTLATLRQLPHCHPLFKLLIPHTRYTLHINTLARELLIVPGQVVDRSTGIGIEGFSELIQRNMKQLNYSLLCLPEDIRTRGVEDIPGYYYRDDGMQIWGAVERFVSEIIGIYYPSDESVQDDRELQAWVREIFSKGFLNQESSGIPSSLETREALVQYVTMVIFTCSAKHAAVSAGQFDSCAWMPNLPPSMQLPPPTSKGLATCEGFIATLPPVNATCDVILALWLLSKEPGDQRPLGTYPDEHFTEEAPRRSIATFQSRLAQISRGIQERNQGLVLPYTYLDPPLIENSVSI

These molecules were tested against Polyunsaturated fatty acid lipoxygenase ALOX15B (Homo sapiens) (UniProt O15296) (assay: Confirmation qHTS Assay for Inhibitors of 15-hLO-2 (15-human lipoxygenase 2)). Conditions: purified 15hLO-2, xylenol orange hydroperoxide absorbance; series mostly up to 57.1 µM; activity change, negative = inhibition: at the top concentration.
Method: Human lipoxygenase 15hLO-2 is a member of the closely related lipoxygenase family of enzymes which catalyze the site-specific oxidation of arachidonic acid to various hormone precursor molecules and as such is a candidate for drug development in a variety of disease areas, such as cancer and inflammation. Inhibition of 15hLO-2 activity was screened by utilizing arachidonic acid as a substrate. The extent of hydroperoxide product formation was measured by a secondary chromogenic reaction in which xylenol orange (XO, Sigma-Aldrich, cat. number 39,818-7) reacts with the ferric ions produced from the reaction between the hydroperoxide and ferrous ions. The Fe(III)-XO complex is characterized with red-shifted absorbance at 560 nm. A purified preparation of human 15hLO-2 was supplied by Professor Ted Holman, University of California, Santa Cruz. NIH Molecular Libraries Screening Centers Network [MLSCN] NIH Chemical Genomics Center [NCGC] MLSCN Grant: MH081283-01A1 PI Name: Holman, T.R., University of California, Santa Cruz
Assay Protocol: Buffer: 25 mM Hepes pH 7.5, 0.01% Triton X-100. Reagents/Controls: Buffer in columns 3 and 4 as negative control (no enzyme). Substrate solution: 45 uM arachidonic acid (Sigma-Aldrich, St. Louis, MO) final concentration dispensed throughout the plate. Enzyme: 50 nM 15hLO-2 final concentration in columns 1, 2, 5-48. Column 1 is neutral (100% activity). Column 2 contained pin-transferred titration of NDGA (nordihidroguaiaretic acid, Sigma-Aldrich, N 5023, top concentration 10 mM in DMSO, then 1:2 dilution in duplicate). (Dilution factor: 23 nL into 4 uL.) Chromogenic detection reagent (divalent iron/xylenol orange, Fe-XO): 200 uM xylenol orange plus 300 uM ferrous ammonium sulfate prepared freshly in 50 mM sulfuric acid. Assay Steps: Three uL of enzyme were dispensed to 1536-well Greiner black clear bottom plates. Compounds and controls (23 nL) were transferred via Kalypsys PinTool. The plates were incubated for 15 min at room temperature, and then 1 uL of substrate solution was added to start the reaction. After room temperature incubation for 90 minutes, 4 uL of Fe-XO solution was added to each well followed by a short spin (1000 rpm, 15 sec) and the plates were then incubated for 30 min. The absorbance at 405 and 573 nm were measured using ViewLux (Perkin-Elmer) High-throughput CCD imager and absorbance protocol settings. The 573-to-405 absorbance ratio was used to compute reaction progress.
With COc1ccc(NC(=O)CSc2nc(O)cc(=O)n2-c2ccccc2OC)cc1 the “activity change, negative = inhibition” value was inactive: -4.58%.
CCCCn1c(NC(C)=O)c(C#N)c2nc3ccccc3nc21 was tested, and the Potency was inconclusive: 3.55 µM [inhibitor, full curve].
In the case of Cc1c(N/C=C/C(=O)c2cccs2)c(=O)n(-c2ccccc2)n1C, the “activity change, negative = inhibition” value is reported as inactive: -9.11%.
For Cc1cccc(NC(=O)CSC(N)=O)c1C, the “activity change, negative = inhibition” value was inactive: -20.6%.
O=C(O)CCc1ccc(-c2ccccc2)n1-c1cccc(O)c1 was tested, and the Potency was inconclusive: 11.2 µM [inhibitor, partial curve].
With CN(C)c1ccc(C(=S)NCc2ccco2)cc1 the Potency was inconclusive: 12.6 µM [inhibitor, full curve].
